# Test results taken from PubChem BioAssay AID1347076 (National Center for Advancing Translational Sciences (NCATS), 2019).
# In all, about 400,000 compounds went through this assay and about 13,000 (3.2%) were called active. Inconclusive means that the source gave no clear call. Such entries were picked first, then a sample of the others. Calls follow the shape of the dose curve; as a rule, active = well fitted cell-killing curve with a large enough effect; inconclusive = small, poorly fitted or top-dose-only effect, or effect the other way; inactive = flat fitted curve, though single readings scatter. A potency beside an inconclusive call is a rough fit, not a confirmed value.
# Assay: qHTS assay for MDR1-selective chemotherapeutics: Primary screen using the drug-selected MDR subline cells KB-V1; also: nearly all actives have a fitted effect of over 60% in size
# Conditions: KB-V1 MDR cells viability, CellTiter-Glo, 72 h; activity change, negative = cytotoxicity: at 46.1 µM (top of the series)
# How it was run: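 Cytotoxicity toward P-gp-expressing KB-V1 cells was determined as loss of CellTiter-Glo luminescence after 72 h at 37 degrees C. Compounds were tested in quantitative HTS format across a concentration range, with curves fitted to normalized data.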
# % is scaled to controls: 0 for no effect and ±100 for the full control effect; potency is read from the fitted curve at half-maximal effect.
Structure (SMILES),Potency,"activity change, negative = cytotoxicity"
O=C(NCCN1CCNC1=O)C1CCC(=O)N(CCc2ccccc2)C1 (centres undefined),"inconclusive: 16.4 µM [rising, single point]",–
Cc1ccc(NC(=O)CSc2nc3ccccc3nc2N2CCCC2)cc1,"inconclusive: 0.58 µM [cytotoxic, full curve]",–
CC(=O)c1cccc(NC(=O)c2ccc3c(=O)n4c(nc3c2)CCCCC4)c1,"inconclusive: 18.4 µM [cytotoxic, single point]",–
COc1cc(C2c3c(n[nH]c3C)C(=O)N2c2ccc(C)cc2)ccc1O (centres undefined),"inconclusive: 20.6 µM [cytotoxic, single point]",–
O=C(CN1CCOCC1)Nc1ccc(S(=O)(=O)NC2CCCCC2)cc1,"inconclusive: 18.4 µM [cytotoxic, single point]",–
O=C(COc1ccccc1C(=O)O)Nc1ccc(SC(F)F)cc1,inactive,–
Cn1nccc1C(=O)N/N=C/c1c(O)ccc2ccccc12,"inconclusive: 6.51 µM [cytotoxic, partial curve]",–
COc1cc(C(=O)Nc2c(C(=O)O)[nH]c3ccc(Br)cc23)cc(OC)c1OC,inactive,–
Oc1ccc2ccccc2c1CNc1ccccn1,inactive,–
CCN1CCN(S(=O)(=O)c2ccc(Cl)c(C(=O)N(C)Cc3cccc(Cl)c3Cl)c2)CC1,"inconclusive: 2.06 µM [cytotoxic, full curve]",–
CCN(CC)S(=O)(=O)c1ccc(NC(=O)CCNC(=O)c2ccccc2)cc1,inactive,–
COc1ccc(Cl)c(Cn2c(NCCCN(C)C)nc3c2c(=O)n(C)c(=O)n3C)c1,"inconclusive: 29.1 µM [rising, single point]",–
Cc1ccc(S(=O)(=O)N2CCN(C(=O)N3CCOCC3)C2c2ccc(N(C)C)cc2)cc1 (centres undefined),"inconclusive: 6.51 µM [cytotoxic, partial curve, poor fit]",–
CC(C)CN(C(=O)COC(=O)CCc1c[nH]c2ccccc12)C1CCS(=O)(=O)C1 (centres undefined),"inconclusive: 16.4 µM [rising, partial curve, poor fit]",–
O=C(c1cccc(F)c1)N1CCN(Cc2c[nH]c3ccccc23)CC1,inactive,–
O=C(C[C@@H]1C/C=C\C[C@@H](NC(=O)OCC2c3ccccc3-c3ccccc32)C(=O)OC[C@@H](Cc2ccccc2)NC1=O)NCCO,inactive,–
CCn1c(/C=C/N(C(C)=O)c2ccccc2)[n+](CC)c2ccc(Cl)cc21,inactive,–
Cc1cccc(N2CCN(C(=O)c3ccc4nc(N5CCC(C)CC5)sc4c3)CC2)c1C,"inconclusive: 29.1 µM [cytotoxic, single point]",–
O=C(CSc1nc(Nc2ccccc2)nc(N2CCOCC2)n1)Nc1ccc([N+](=O)[O-])cc1,"inconclusive: 23.1 µM [cytotoxic, single point]",–
COc1cc(/C=N/NC(=O)c2sc(N)c(C#N)c2C)ccc1O,inactive,–
C=CCn1c(-c2ccc([N+](=O)[O-])cc2)n[nH]c1=S,"inconclusive: 2.06 µM [rising, full curve, poor fit]",–
CC(OC(=O)c1ccc(C(C)(C)C)cc1)C(=O)NC1CCCCC1C (centres undefined),inactive,–
CC[C@@H]1CC=C[C@H]2[C@H]1C(=O)N(Cc1ccccc1)[C@H]2c1ccc(OC)c(Cl)c1,"inconclusive: 23.1 µM [cytotoxic, partial curve]",–

Structure (SMILES),Potency,"activity change, negative = cytotoxicity"
COc1ccc(C(O)(c2ccccc2OC)C(CN2CCOCC2)c2ccccc2)cc1 (centres undefined),active: 20.6 µM,–
Nc1ccc(Br)c2cccnc12,"inconclusive: 5.8 µM [cytotoxic, full curve]",–
COc1ccc(-c2ccc(CN3C(C(C)C)C(=O)N(Cc4cn(CCC5OCCCO5)nn4)CCS3(=O)=O)cc2)cn1 (centres undefined),"inconclusive: 29.1 µM [rising, partial curve, poor fit]",–
CC(C)CNC(=O)c1[nH]c(C(F)(F)F)nc1-c1ccccc1,–,inconclusive: -22.2%
Cc1ccc(-c2nc(C3CCN(S(=O)(=O)c4ccc(C(C)(C)C)cc4)CC3)no2)cc1,inactive,–
O=C1NC(=O)c2cc(Br)cc3cccc1c23,"inconclusive: 23.1 µM [cytotoxic, partial curve]",–
CCN1C(=O)[C@H]2[C@@H](c3ccc(-c4ccc5c(c4)OCO5)c(OC)c3)N[C@@](Cc3ccccc3)(C(=O)OC)[C@H]2C1=O,"inconclusive: 29.1 µM [cytotoxic, single point]",–
COc1ccc(CN(C(=O)c2ccccc2F)C2CCS(=O)(=O)C2)cc1 (centres undefined),inactive,–
Cc1ccc(C(=O)NC(=S)NNC(=O)CCN2CCOCC2)cc1,"inconclusive: 16.4 µM [cytotoxic, single point]",–
Cc1ccn2c(NC(=O)c3cccc(Cl)c3)c(-c3ccccc3)nc2c1,"inconclusive: 0.291 µM [cytotoxic, full curve, poor fit]",–
O=C(CN1C(=O)/C(=C/c2ccc(C(F)(F)F)cc2)Sc2ccccc21)NCCCN1CCOCC1,inactive,–
CN(C)c1ccc(NC(=O)CSc2nnc(-c3cccs3)n2Cc2ccco2)cc1,active: 7.31 µM,–
O=C(Nc1ccc(-c2nc3ccccc3s2)cc1)c1cc(-n2cnnc2)ccc1Cl,inactive,–
O=C(CSc1nnc(-c2ccncc2)n1Cc1ccco1)Nc1cccc(O)c1,"inconclusive: 16.4 µM [rising, partial curve, poor fit]",–
COc1cccc(CN(C)CC(=O)Nc2ccccc2N2CCOCC2)c1OC,"inconclusive: 0.517 µM [rising, full curve, poor fit]",–
CC(C)n1nnnc1SCC(=O)N1CCOCC1,"inconclusive: 14.6 µM [rising, partial curve, poor fit]",–
COc1ccc(C2=Nc3ccccc3NC(=O)C2N(C(=O)c2ccnc3ccccc23)c2ccccc2)cc1 (centres undefined),"inconclusive: 29.1 µM [cytotoxic, single point]",–
c1ccc(-c2cc(-c3nnc4sc(-c5ccccn5)nn34)[nH]n2)cc1,"inconclusive: 2.06 µM [cytotoxic, partial curve]",–
CCOc1ccc(-c2c(C(=O)N/N=C/c3ccoc3)nnn2-c2nonc2N)cc1,"inconclusive: 13 µM [rising, partial curve, poor fit]",–
CC(C)(C)n1nnnc1C(c1cccc(C#N)c1)N1CCN2CCCC2C1 (centres undefined),"inconclusive: 9.2 µM [rising, partial curve, poor fit]",–
Cc1ccc(N2CC(C(=O)OCC(=O)Nc3cc(C)on3)CC2=O)c(C)c1 (centres undefined),inactive,–
C1CCCC(NC2=NCCO2)CCC1,"inconclusive: 0.206 µM [rising, full curve, poor fit]",–
CSc1cccc(NC(N)=S)c1,inactive,–

# One compound at a time, as listed above. Values in the order: Potency | activity change, negative = cytotoxicity
# Nc1ccc(Br)c2cccnc12 is listed as inconclusive: 5.8 µM [cytotoxic, full curve] | –
# Cc1ccc(C(=O)NC(=S)NNC(=O)CCN2CCOCC2)cc1 is listed as inconclusive: 16.4 µM [cytotoxic, single point] | –
# O=C(CN1C(=O)/C(=C/c2ccc(C(F)(F)F)cc2)Sc2ccccc21)NCCCN1CCOCC1 is listed as inactive | –

# The listing continues:

Structure (SMILES),Potency,"activity change, negative = cytotoxicity"
O=C(CC1CCCCC1)N1CCN(c2ccccn2)CC1,inactive,–
COC(=O)c1sccc1NC(=O)c1cccc(F)c1,inactive,–
COc1ccc2c(c1OC)C(=O)OC2N1C(=O)CC[C@H]1C(=O)Nc1ccc(F)cc1F (some centres undefined),inactive,–
Cc1ccc(C(C)(C)C)c(SCC(=O)Nc2nnc(C)s2)c1,inactive,–
CC(C)c1ccc(NC(=O)C2CCC(CNC(=O)[C@@H]3Cc4ccccc4CN3)CC2)cc1 (some centres undefined),–,inconclusive: -10.5%
COc1ccc(CCNC(=S)Nc2cccc3ccccc23)cc1,"inconclusive: 18.4 µM [cytotoxic, single point]",–
CN(Cc1nc2ccccc2c(=O)[nH]1)C(=O)C1CC(=O)N(c2cccc3ccccc23)C1 (centres undefined),inactive,–
Cc1nc(-c2ccc(Cl)cc2)sc1C1(C)CC(c2ccc(Br)cc2)=NO1 (centres undefined),–,inconclusive: 1.9%
c1ccc(Nc2nc(N3CCOCC3)c3ccccc3n2)cc1,"inconclusive: 8.2 µM [cytotoxic, partial curve]",–
CC(C)CC1C(=O)N(Cc2cn(Cc3ccco3)nn2)CCS(=O)(=O)N1Cc1ccc(-c2ccc(Cl)cc2)cc1 (centres undefined),"inconclusive: 20.6 µM [cytotoxic, single point]",–
CCOc1ccccc1Nc1ccnc2cc(Cl)ccc12,"inconclusive: 29.1 µM [cytotoxic, single point]",–
O=C1NC(c2ccccc2)=C(c2nc3ccccc3s2)C(c2ccc(F)cc2)N1 (centres undefined),"inconclusive: 18.4 µM [cytotoxic, single point]",–
CCOCCc1nn2c(=O)cc(COC(=O)c3ccccc3NC(=O)c3ccccc3F)nc2s1,inactive,–
NNC(=O)c1sccc1OCc1ccc(F)cc1,"inconclusive: 29.1 µM [rising, single point]",–
Cc1ccc(-c2cn(S(=O)(=O)c3cccc([N+](=O)[O-])c3)nc2N)cc1,"inconclusive: 16.4 µM [cytotoxic, partial curve]",–
COc1ccccc1C1(CCNS(=O)(=O)c2ccc(C)cc2)CCOC(C(C)C)C1 (centres undefined),active: 3.66 µM,–
Cc1ccc(-c2nc3n(n2)C(c2ccccc2Cl)C=C(c2ccc(Cl)cc2)N3)cc1 (centres undefined),inactive,–
Cc1ccc(C)c(NS(=O)(=O)c2cc(C(=O)N3CCc4ccccc4C3)ccc2Cl)c1,"inconclusive: 6.51 µM [cytotoxic, partial curve, poor fit]",–
COc1ccc(-c2nc(SCc3ccccc3)n(C(=O)c3ccco3)n2)cc1,"inconclusive: 25.9 µM [cytotoxic, single point]",–
COc1cc(/C=N/Nc2nc(-c3ccc(S(=O)(=O)N(C)C)cc3)cs2)ccc1O,inactive,–
COc1ccc(C2/C(=C(/O)c3ccc4c(c3)CC(C)O4)C(=O)C(=O)N2Cc2cccnc2)cc1 (centres undefined),"inconclusive: 5.17 µM [rising, full curve]",–
CC1(c2nnnn2Cc2ccccc2)CCC(=O)N1CCc1c[nH]c2ccccc12 (centres undefined),"inconclusive: 14.6 µM [cytotoxic, single point]",–
CCOCC(=O)NC1CCc2cc(OC(=O)COCC)c(OC)c(OC)c2-c2ccc(SC)c(=O)cc21 (centres undefined),active: 16.4 µM,–
